Experimental data from the supplement of paper PMC12819154, “High-throughput peptide-centric local stability assay extends protein–ligand identification to membrane proteins, tissues and bacteria” (Nature Structural & Molecular Biology, 2025).
The list shows a part of the results. Most values lie at the level of the controls, where differences are scatter.

Protein sequences, listed by entry. Tags and fused reporters are not part of them. Lines headed by an entry give the natural chain unless they say otherwise; changes in a name come on top.
UniProt O15173: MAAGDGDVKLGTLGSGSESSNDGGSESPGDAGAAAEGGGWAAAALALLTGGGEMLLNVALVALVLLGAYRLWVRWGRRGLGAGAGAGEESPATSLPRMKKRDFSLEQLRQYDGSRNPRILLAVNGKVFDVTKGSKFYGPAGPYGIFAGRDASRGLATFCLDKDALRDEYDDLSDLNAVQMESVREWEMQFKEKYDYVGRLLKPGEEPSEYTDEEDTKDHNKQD
UniProt O15151: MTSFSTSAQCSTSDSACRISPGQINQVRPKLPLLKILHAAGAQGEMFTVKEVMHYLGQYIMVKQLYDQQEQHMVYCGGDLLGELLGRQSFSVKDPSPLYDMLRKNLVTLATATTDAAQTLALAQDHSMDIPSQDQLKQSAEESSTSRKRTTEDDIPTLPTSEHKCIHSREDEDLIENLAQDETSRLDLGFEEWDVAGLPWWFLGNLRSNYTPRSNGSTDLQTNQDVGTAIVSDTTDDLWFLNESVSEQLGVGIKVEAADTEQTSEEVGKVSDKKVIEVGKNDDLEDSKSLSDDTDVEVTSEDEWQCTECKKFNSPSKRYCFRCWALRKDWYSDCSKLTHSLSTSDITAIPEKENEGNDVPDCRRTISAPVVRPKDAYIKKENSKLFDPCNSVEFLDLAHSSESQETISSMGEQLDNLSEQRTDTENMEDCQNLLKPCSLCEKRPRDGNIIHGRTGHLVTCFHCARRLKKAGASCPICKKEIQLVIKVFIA
UniProt O15479: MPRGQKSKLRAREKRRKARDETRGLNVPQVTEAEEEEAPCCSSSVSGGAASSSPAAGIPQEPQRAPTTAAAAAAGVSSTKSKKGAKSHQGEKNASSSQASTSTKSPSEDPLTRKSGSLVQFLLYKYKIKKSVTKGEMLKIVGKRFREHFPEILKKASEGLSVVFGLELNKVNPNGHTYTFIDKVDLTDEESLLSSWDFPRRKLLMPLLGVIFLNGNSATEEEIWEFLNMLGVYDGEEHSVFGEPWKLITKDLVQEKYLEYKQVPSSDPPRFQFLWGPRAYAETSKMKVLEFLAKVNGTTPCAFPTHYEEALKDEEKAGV
UniProt O14974: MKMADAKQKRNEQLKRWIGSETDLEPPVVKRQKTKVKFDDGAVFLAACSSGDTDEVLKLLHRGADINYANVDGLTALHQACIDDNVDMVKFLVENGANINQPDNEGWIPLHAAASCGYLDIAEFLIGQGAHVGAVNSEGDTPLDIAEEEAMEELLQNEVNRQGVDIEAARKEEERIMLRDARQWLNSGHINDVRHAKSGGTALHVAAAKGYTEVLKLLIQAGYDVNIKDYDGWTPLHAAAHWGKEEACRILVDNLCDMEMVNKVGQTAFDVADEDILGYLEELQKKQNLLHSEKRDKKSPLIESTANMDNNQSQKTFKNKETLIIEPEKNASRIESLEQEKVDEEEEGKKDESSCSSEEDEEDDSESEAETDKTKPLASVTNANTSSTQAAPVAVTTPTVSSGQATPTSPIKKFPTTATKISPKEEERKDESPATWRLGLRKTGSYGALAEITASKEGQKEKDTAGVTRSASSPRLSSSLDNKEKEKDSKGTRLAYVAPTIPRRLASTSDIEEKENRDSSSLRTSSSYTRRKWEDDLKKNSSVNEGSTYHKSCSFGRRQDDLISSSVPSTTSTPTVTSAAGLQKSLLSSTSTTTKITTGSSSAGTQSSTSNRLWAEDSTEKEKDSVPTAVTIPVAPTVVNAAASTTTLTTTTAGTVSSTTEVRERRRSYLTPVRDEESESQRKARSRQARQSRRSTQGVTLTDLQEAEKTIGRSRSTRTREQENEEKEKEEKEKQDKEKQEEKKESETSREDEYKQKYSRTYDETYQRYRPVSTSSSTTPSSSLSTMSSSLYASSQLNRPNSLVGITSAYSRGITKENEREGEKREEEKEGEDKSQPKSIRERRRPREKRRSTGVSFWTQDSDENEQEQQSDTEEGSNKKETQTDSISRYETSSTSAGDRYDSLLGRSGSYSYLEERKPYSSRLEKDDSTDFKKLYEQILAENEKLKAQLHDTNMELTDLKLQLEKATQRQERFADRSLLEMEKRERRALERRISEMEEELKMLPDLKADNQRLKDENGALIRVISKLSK
UniProt O14578, whole entry: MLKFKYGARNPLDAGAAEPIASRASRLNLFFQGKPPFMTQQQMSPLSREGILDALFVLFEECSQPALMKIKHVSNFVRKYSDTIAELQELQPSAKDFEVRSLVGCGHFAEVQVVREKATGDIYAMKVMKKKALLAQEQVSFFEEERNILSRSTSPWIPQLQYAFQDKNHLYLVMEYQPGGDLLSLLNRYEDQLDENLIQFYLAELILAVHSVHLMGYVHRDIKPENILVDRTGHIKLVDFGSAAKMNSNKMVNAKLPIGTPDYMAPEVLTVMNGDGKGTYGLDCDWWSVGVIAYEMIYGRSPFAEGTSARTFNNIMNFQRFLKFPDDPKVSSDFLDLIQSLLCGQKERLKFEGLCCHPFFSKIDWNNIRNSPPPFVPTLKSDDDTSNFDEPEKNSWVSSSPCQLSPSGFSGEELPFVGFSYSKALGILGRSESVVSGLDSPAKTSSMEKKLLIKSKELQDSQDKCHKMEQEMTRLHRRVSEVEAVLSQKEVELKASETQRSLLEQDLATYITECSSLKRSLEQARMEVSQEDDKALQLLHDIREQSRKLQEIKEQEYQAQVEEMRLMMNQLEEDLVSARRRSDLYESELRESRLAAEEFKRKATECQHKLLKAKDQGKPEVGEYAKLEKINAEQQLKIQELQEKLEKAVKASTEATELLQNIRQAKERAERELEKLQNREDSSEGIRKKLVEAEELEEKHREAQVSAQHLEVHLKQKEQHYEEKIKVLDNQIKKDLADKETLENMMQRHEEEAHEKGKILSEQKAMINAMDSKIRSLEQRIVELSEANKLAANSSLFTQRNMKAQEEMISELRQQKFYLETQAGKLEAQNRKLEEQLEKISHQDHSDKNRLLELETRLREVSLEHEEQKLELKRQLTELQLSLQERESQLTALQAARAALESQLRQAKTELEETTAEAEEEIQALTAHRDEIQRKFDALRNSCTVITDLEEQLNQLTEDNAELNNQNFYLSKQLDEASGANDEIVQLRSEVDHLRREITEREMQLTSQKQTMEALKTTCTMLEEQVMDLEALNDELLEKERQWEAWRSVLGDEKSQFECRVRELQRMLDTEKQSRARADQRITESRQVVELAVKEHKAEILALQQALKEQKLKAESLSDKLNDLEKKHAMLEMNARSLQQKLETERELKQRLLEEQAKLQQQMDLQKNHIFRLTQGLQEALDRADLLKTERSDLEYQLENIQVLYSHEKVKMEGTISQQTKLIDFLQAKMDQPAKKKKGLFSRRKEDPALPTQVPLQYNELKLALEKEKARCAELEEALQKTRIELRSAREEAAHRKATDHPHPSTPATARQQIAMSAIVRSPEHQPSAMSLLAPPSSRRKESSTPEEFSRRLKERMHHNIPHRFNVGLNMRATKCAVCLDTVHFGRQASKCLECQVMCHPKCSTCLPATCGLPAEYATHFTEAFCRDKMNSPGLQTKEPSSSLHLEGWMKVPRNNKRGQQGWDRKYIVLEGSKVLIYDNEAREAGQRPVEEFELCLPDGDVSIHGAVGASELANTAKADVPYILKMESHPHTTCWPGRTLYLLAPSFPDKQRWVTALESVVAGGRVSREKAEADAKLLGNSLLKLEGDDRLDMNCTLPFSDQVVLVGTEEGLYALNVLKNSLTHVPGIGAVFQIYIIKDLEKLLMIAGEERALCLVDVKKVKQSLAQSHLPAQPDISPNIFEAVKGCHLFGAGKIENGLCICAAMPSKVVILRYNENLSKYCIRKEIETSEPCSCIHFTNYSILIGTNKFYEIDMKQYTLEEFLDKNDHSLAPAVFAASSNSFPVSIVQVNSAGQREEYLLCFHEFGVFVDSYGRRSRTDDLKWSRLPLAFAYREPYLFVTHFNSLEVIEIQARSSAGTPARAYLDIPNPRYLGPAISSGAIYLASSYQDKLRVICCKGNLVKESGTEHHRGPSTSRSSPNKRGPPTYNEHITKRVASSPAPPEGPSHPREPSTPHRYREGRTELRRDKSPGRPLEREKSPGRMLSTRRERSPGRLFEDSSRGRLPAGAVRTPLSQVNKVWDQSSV
UniProt O15213: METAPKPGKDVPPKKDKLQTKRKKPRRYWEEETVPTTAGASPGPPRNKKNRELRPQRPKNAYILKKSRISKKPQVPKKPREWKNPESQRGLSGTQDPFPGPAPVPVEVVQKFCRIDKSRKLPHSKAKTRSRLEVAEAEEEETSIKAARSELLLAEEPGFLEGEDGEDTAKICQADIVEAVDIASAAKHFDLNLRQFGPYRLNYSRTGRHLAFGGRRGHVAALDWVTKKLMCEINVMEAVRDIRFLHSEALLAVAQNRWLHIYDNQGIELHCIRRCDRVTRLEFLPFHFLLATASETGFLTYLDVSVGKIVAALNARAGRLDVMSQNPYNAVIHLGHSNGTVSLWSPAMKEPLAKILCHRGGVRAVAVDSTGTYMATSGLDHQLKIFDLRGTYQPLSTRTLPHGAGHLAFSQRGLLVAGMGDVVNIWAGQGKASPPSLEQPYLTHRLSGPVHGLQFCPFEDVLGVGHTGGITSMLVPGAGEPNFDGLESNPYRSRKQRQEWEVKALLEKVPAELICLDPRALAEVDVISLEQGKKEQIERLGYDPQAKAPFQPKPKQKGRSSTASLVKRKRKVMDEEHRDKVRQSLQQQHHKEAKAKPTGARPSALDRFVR
UniProt A9UHW6: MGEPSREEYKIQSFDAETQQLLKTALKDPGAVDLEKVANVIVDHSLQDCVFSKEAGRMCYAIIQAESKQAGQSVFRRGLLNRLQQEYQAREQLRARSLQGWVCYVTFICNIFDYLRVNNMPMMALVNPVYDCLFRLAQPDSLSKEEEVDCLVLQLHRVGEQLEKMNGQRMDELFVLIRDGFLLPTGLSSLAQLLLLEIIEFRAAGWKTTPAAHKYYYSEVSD
UniProt O14757: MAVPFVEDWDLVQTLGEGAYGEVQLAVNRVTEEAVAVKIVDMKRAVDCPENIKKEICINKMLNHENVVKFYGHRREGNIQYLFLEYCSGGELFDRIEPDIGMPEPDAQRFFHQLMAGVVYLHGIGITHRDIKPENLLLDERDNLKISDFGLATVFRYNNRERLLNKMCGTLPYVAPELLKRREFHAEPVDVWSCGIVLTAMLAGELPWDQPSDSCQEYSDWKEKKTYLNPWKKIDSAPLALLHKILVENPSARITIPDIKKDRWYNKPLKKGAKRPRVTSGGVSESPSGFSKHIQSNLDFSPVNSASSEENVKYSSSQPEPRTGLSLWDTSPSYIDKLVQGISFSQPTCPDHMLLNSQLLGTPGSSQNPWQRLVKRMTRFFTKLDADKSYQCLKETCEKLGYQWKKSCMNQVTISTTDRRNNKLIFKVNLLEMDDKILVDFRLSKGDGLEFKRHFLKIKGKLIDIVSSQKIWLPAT
UniProt O00139: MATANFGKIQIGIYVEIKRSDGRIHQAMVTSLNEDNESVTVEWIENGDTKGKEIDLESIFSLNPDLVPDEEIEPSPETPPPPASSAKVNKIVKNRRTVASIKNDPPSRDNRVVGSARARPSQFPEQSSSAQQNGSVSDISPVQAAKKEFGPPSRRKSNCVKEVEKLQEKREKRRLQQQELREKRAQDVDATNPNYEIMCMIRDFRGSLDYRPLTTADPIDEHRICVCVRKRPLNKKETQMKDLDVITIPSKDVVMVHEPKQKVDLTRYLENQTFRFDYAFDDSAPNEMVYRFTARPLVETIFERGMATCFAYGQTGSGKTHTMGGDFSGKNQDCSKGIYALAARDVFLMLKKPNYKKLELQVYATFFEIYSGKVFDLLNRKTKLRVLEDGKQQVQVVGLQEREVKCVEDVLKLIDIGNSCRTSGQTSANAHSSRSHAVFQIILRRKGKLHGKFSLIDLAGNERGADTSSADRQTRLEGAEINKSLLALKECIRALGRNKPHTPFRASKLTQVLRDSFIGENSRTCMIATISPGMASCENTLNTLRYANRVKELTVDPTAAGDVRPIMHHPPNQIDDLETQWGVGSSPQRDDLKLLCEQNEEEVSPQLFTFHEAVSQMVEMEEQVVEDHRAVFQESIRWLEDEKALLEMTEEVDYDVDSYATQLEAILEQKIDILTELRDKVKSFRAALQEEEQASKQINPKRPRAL
UniProt O15504: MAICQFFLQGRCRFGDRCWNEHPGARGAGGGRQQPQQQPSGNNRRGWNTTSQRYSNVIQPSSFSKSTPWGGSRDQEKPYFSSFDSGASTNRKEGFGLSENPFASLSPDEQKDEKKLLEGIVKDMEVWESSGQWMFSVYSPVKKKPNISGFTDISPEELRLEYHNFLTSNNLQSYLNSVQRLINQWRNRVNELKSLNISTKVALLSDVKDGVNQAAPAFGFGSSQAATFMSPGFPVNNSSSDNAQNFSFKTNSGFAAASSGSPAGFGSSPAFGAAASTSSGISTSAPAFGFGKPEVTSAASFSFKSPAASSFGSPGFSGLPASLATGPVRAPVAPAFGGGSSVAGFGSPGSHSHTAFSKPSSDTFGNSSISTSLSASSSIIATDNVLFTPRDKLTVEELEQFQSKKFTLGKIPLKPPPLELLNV

What follows are targets tested with Cc1nc(Nc2ncc(C(=O)Nc3c(C)cccc3Cl)s2)cc(N2CCN(CCO)CC2)n1 [dasatinib] (assay: log2 fold change of tryptic peptide abundance, ligand vs vehicle (limited proteolysis) (log2 ratio); higher = more trypsin-susceptible (destabilized)). Conditions: ligand concentration: 5 uM; sample: K562 cleared lysate.

Target | log2 fold change
PGRMC2 (peptide sequence: EKYDYVGR, peptide start residue: 192) (UniProt O15173) | -0.396
TXNDC9 (peptide sequence: KFGTNFTK, peptide start residue: 201) (UniProt O14530) | 0.0669
UniProt O14924 (peptide sequence: LDLVPINR, peptide start residue: 1037) | -0.0145
SNRPGP15 (peptide sequence: AHPPELKK, peptide start residue: 4) (UniProt A8MWD9) | -0.0503
SCAMP3 (peptide sequence: KLSPTEPK, peptide start residue: 74) (UniProt O14828) | -0.0601
CBX4 (peptide sequence: PKPLVVQVPTFAR, peptide start residue: 76) (UniProt O00257) | -0.84
MDM4 (peptide sequence: TISAPVVRPK, peptide start residue: 365) (UniProt O15151) | -0.232
MAST4 (peptide sequence: GLQNSPAVSLPDPEFKR, peptide start residue: 1882) (UniProt O15021) | -0.623
MAGEB2 (peptide sequence: EHFPEILK, peptide start residue: 147) (UniProt O15479) | -0.215
PPP1R12A (peptide sequence: ESETSREDEYK, peptide start residue: 745) (UniProt O14974) | 0.334
CDK2AP1 (peptide sequence: EIRPTYAGSK, peptide start residue: 87) (UniProt O14519) | 0.0273
CIT (peptide sequence: KDLADKETLENMMQR, peptide start residue: 734) (UniProt O14578) | -0.741
WDR46 (peptide sequence: QSLQQQHHK, peptide start residue: 583) (UniProt O15213) | -0.588
UniProt A8MTZ0 (peptide sequence: MHQAAQNTIR, peptide start residue: 69) | 0.222
UniProt H3BV60 (peptide sequence: RPLFSLK, peptide start residue: 60) | 0.196
C2CD2L (peptide sequence: NLGTPTSSTPRPSITPTKK, peptide start residue: 414) (UniProt O14523) | -0.332
SOX12 (peptide sequence: WQLLQDSEKIPFVR, peptide start residue: 78) (UniProt O15370) | -0.157
MIF4GD (peptide sequence: VANVIVDHSLQDCVFSK, peptide start residue: 37) (UniProt A9UHW6) | 0.155
UniProt O14757 (peptide sequence: MCGTLPYVAPELLKR, peptide start residue: 167) | -0.584
ZNF646 (peptide sequence: QTHQTGDFSCGACAK, peptide start residue: 637) (UniProt O15015) | 0.229
HAT1 (peptide sequence: INKQHAR, peptide start residue: 323) (UniProt O14929) | -0.286
ARPC1B (peptide sequence: NAYVWTLK, peptide start residue: 75) (UniProt O15143) | -0.34
KIF2A (peptide sequence: GSLDYRPLTTADPIDEHR, peptide start residue: 206) (UniProt O00139) | 0.1
NDUFS8 (peptide sequence: EPATINYPFEK, peptide start residue: 78) (UniProt O00217) | -0.298
E2F3 (peptide sequence: TNNQDHNGNIPKPASK, peptide start residue: 363) (UniProt O00716) | -0.279
SNAP23 (peptide sequence: IEEGLDQINKDMR, peptide start residue: 55) (UniProt O00161) | -0.0649
UniProt O15504 (peptide sequence: DQEKPYFSSFDSGASTNRK, peptide start residue: 74) | 0.342
SPTLC1 (peptide sequence: LLKEQEIEDQKNPR, peptide start residue: 220) (UniProt O15269) | -0.418

Random excerpt: two records from the list
Target | log2 fold change
PGRMC2 (peptide sequence: EKYDYVGR, peptide start residue: 192) (UniProt O15173) | -0.396
SNRPGP15 (peptide sequence: AHPPELKK, peptide start residue: 4) (UniProt A8MWD9) | -0.0503
